Measured values from PubChem BioAssay AID445 (National Center for Advancing Translational Sciences (NCATS), 2006).
The list shows a part of the results. These are further read-outs of the screen, such as a control signal, another cell line or another target. No call is given for them. The list favours compounds with an active or inconclusive main result. Words in brackets tell the shape of the fitted curve; partial curves, single points and poor fits give uncertain potencies.

assay: IkB Signaling; conditions: ABC-DLBCL IkBa-CBG/CBR dual luciferase ratio (green luciferase fused to IkBa over red control in OCI-Ly3 lymphoma cells), 4 h; measured here: control luc red channel unless noted
In short: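 Curves were fitted separately to fusion (green), unfused (red) and ratio luminescence, then classed by r2, magnitude and activity. Cells: OCI-Ly3, 4 h compound plus doxycycline at 37C; 10 uM MG-132 defined full response.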

| Compound | AC50 |
| --- | --- |
| COc1ccc(C2=NC(c3ccncc3)=Nc3ccc(Br)cc3N2)cc1 | 31.6 µM [falling, single point] |
| CCOC(=O)C1=C(CN2CCCCC2)NC(=O)NC1c1cc(C)ccc1C (configuration not stated) | 3.16 µM [falling, partial curve] |
| CC(C)(C)c1ccc(OCCn2cc(C(=O)c3ccco3)c3ccccc32)cc1 | 2 µM [falling, full curve] |
| COc1ccccc1N1CCN(C(CNC(=O)C(=O)NCc2ccc(C)cc2)c2cccnc2)CC1 (configuration not stated) | 39.8 µM [falling, single point] |
| CCOC(=O)c1ccc(NS(=O)C23CC4CC(CC(C4)C2)C3)cc1 (configuration not stated) | 25.1 µM [falling, partial curve] |
| CCc1cccc(NC(=O)C2CCCN(S(=O)(=O)c3cccs3)C2)c1 (configuration not stated) | 39.8 µM [falling, single point] |
| Cc1cccc(-n2ccnc2SCC(=O)Nc2ccc3c(c2)OCCO3)c1 | 10 µM [falling, partial curve] |
| CCc1ccc(N2C(=O)CSC23C(=O)N(Cc2ccc(C)cc2)c2ccccc23)cc1 (configuration not stated) | 15.8 µM [falling, partial curve] |
| COc1ccc(S(=O)(=O)c2c(C)c(NS(=O)(=O)c3ccccc3)cc(C)c2O)cc1 | 12.6 µM [falling, partial curve] |
| COc1ccc(Cn2cc(C(=O)c3ccc(C)cc3)c(=O)c3cc(OC)c(OC)cc32)cc1 | 15.8 µM [falling, partial curve] |
| CN(C)c1ccc(C(=C2C=CC(=[N+](C)C)C=C2)c2c(O)c(S(=O)(=O)O)cc3cc(S(=O)(=O)O)ccc23)cc1 | 3.98 µM [falling, partial curve] |
| COc1cc(C(c2c(C)[nH][nH]c2=O)c2c(C)[nH][nH]c2=O)ccc1OC(=O)c1cccc(C)c1 | 31.6 µM [falling, single point] |
| O=C(c1ccc2c(c1)CCCC2)N1CCN(c2nc3c(F)cccc3s2)CC1 | 0.0631 µM [rising, full curve, poor fit] |
| CCCCOc1ccc(CN2C(=O)C(=O)c3cc(Br)cc(C)c32)cc1OC | 5.01 µM [rising, partial curve] |
| Cc1ccc(CN2CCc3nc(N4CCN(c5ccccc5F)CC4)ncc3C2)cc1C | 0.00501 µM [falling, full curve] |
| OC(COc1c(F)cc(Br)cc1F)CN1CCN(c2ccc(F)cc2)CC1 (configuration not stated) | 15.8 µM [falling, partial curve] |
| O=C(NCc1ccccc1Cl)C1CCCN(C(=O)c2cnn(-c3ccccc3)c2-n2cccc2)C1 (configuration not stated) | 15.8 µM [falling, single point] |
| Cc1nc2c(C(=O)NCCc3ccc(Cl)cc3)c[nH]n2c(=O)c1Cc1ccc(Cl)cc1 | 7.94 µM [falling, full curve] |
| COc1ccccc1C(=O)Nc1c(C(=O)N(C)Cc2ccccc2)sc2nc(C)c(Cl)c(C)c12 | 15.8 µM [falling, partial curve] |
| Cc1cccc(-c2nc3c(c(SCc4ccccc4Cl)n2)Cc2c(CO)cnc(C)c2O3)c1 | 39.8 µM [rising, partial curve, poor fit] |
| CCc1ccc(S(=O)(=O)NCc2csc(-c3ccccc3)n2)s1 | 25.1 µM [falling, partial curve] |

As entered above.
`OC(COc1c(F)cc(Br)cc1F)CN1CCN(c2ccc(F)cc2)CC1` (configuration not stated) | AC50: 15.8 µM [falling, partial curve]
`COc1ccccc1C(=O)Nc1c(C(=O)N(C)Cc2ccccc2)sc2nc(C)c(Cl)c(C)c12` | AC50: 15.8 µM [falling, partial curve]

Carrying on.

| Compound | AC50 |
| --- | --- |
| CCCc1cc(=O)n2c(nc3ccccc32)[nH]1 | 10 µM [falling, partial curve] |
| CNC(=O)CN1C(=O)c2cccnc2Sc2ccccc21 | 3.16 µM [falling, single point] |
| COc1ccc(-c2nc3cc(C)ccn3c2NC(=O)c2ccc(C)c(C)c2)cc1 | 20 µM [falling, partial curve, poor fit] |
| COc1ccc(-n2c(=O)c3c4c(sc3n(Cc3ccccc3Cl)c2=O)CCC4)c(OC)c1 | 5.01 µM [falling, single point] |
| Cc1cccc(OCC(=O)Nc2ccccc2OCc2cc(=O)n3ccccc3n2)c1 | 3.16 µM [falling, partial curve] |
| CC1CCN(S(=O)(=O)c2cc(C(=O)NCc3ccccc3)n(C)c2)CC1 | 20 µM [falling, partial curve] |
| COc1cc2ncc3c(-c4ccccc4)nn(CC(=O)NC4CCCCC4)c3c2cc1OC | 0.0794 µM [falling, full curve] |
| c1cc(-c2noc(CC3CCCCC3)n2)ccn1 | 2.51 µM [rising, full curve, poor fit] |
| CN(C(=O)c1ccc2c(c1)N(Cc1ccc(F)cc1)C(=O)c1ccccc1S2(=O)=O)C1CCCCC1 | 15.8 µM [falling, partial curve] |
| CCOCCCn1c(=N)c(C(=O)NC(C)c2ccccc2)cc2c(=O)n3cccc(C)c3nc21 (configuration not stated) | 0.0126 µM [falling, full curve, poor fit] |
| Fc1cccc(-c2nnn3c2nc(NCc2ccc4c(c2)OCO4)c2ccccc23)c1 | 0.501 µM [falling, full curve] |
| COC(=O)c1ccc(-c2nc(-c3ccc(OC)c(OC)c3)no2)cc1 | 5.01 µM [falling, partial curve] |
| O=C(c1ccc2c(c1)N(Cc1ccc(Cl)cc1)C(=O)c1ccccc1S2(=O)=O)N1CCN(Cc2ccccc2)CC1 | 12.6 µM [falling, partial curve] |
| Cc1cc(C)cc(NC(=O)CCc2c(C)nc3c(c2C)c(=O)n(C)c(=O)n3C)c1 | 15.8 µM [falling, partial curve] |
| Cc1ccc(CCNC(=O)CCn2nc(-c3ccc(Cl)cc3)ccc2=O)cc1 | 0.316 µM [falling, single point] |
| O=S(=O)(c1ccc(Br)cc1)c1nnn2c1nc(NCCc1ccccc1)c1sccc12 | 5.01 µM [falling, full curve] |
| Cc1nc2ccc(S(=O)(=O)NC(C(=O)N3CCN(c4cccc(Cl)c4)CC3)C(C)C)cc2s1 (configuration not stated) | 12.6 µM [falling, partial curve] |
| Cc1ccc(-c2onc(C)c2C)cc1S(=O)(=O)Nc1cccc(Cl)c1C | 31.6 µM [falling, single point] |
| COc1ccc(N2C(=O)CCSC23C(=O)N(Cc2ccc(F)cc2)c2ccccc23)cc1 (configuration not stated) | 39.8 µM [falling, single point] |
| O=C(/C=C\Nc1ccc2c(c1)OCO2)c1ccccn1 | 1.26 µM [falling, full curve] |
| CC(=O)c1ccc(C(=O)N(Cc2cccnc2)c2nc3c(C)c(C)ccc3s2)cc1 | 25.1 µM [falling, partial curve] |

| Compound | AC50 |
| --- | --- |
| CCOC(=O)N1CCN(C(=O)c2ccc3c(c2)N(Cc2cccc(Cl)c2)C(=O)c2ccccc2S3=O)CC1 (configuration not stated) | 0.398 µM [falling, partial curve] |
| CN(C)S(=O)(=O)N1CCN(CC(O)COc2ccc3cc(Br)ccc3c2)CC1 (configuration not stated) | 5.01 µM [falling, partial curve] |
| Cc1ccc(-c2nc3ccccn3c2Nc2ccc3c(c2)OCCO3)o1 | 12.6 µM [falling, partial curve] |
| O=C1CN(C(=O)COc2ccc(Cl)cc2)C(c2ccc(F)cc2)c2cc(Cl)ccc2N1 (configuration not stated) | 20 µM [falling, partial curve] |
| CCc1ccc(CN(C(=O)Nc2cccc(Cl)c2)c2ccccn2)cc1 | 0.501 µM [rising, full curve] |
| COC(=O)c1nc2n(n1)C(c1cc(OC)ccc1OC)C=C(c1ccc(Br)cc1)N2 (configuration not stated) | 25.1 µM [falling, single point] |
| O=C(c1ccccc1F)N1c2nc(-c3ccco3)nn2C2(CCCCC2)[C@@H]2CCCC[C@@H]21 | 15.8 µM [falling, single point] |
| Cc1c(Cl)cccc1NS(=O)(=O)c1ccc(NS(=O)(=O)c2ccc3c(c2)OCCO3)cc1 | 25.1 µM [falling, partial curve] |
| CC(C)Oc1ccccc1C1CC(=O)Nc2cc3c(cc21)OCCO3 (configuration not stated) | 5.01 µM [falling, partial curve] |
| Cc1cccc(N2CCN(C(=O)c3cccn3-c3nnc(N4CCCCC4)s3)CC2)c1C | 39.8 µM [falling, single point] |
| CCc1cccc(C)c1NC(=O)c1cc(S(=O)(=O)N2CCCCCC2)cn1C | 2.51 µM [falling, full curve, poor fit] |
| COc1ccc(-c2cc(C(F)(F)F)nc(SCCC(=O)Nc3cccc(OC)c3)n2)cc1 | 20 µM [falling, partial curve, poor fit] |
| COc1ccccc1N1CCN(S(=O)(=O)CCNC(=O)COc2ccccc2F)CC1 | 5.01 µM [falling, partial curve] |
| O=C(CCCn1c(=O)c2sccc2n(Cc2ccc(Cl)cc2)c1=O)NCc1ccc2c(c1)OCO2 | 10 µM [falling, partial curve] |
| CCOC(=O)c1ccccc1NC(=O)c1cc2c(s1)-c1ccccc1SC2 | 1 µM [falling, full curve] |
| COc1ccc(Br)cc1CNC(=O)CCc1cn(Cc2ccc(C)cc2)c2ccccc12 | 10 µM [falling, partial curve] |
| Cc1scc(CN2CCN(c3ccc(F)cc3)CC2)c1C | 15.8 µM [falling, single point] |
| Cc1nc(SCc2nc3ccccc3[nH]2)c2oc3ccccc3c2n1 | 15.8 µM [falling, partial curve] |
| CC(C)c1ccc(NC(=O)CN2C(=O)CSc3ccc(S(=O)(=O)N4CCCC4)cc32)cc1 | 39.8 µM [falling, single point] |
| N#Cc1ccc(NC(=O)Nc2ccc(Cl)cc2)cc1 | 7.94 µM [falling, full curve, poor fit] |

Rewritten field by field: entries from further up.
CC(C)c1ccc(NC(=O)CN2C(=O)CSc3ccc(S(=O)(=O)N4CCCC4)cc32)cc1
  AC50: 39.8 µM [falling, single point]
N#Cc1ccc(NC(=O)Nc2ccc(Cl)cc2)cc1
  AC50: 7.94 µM [falling, full curve, poor fit]
